Small-molecule microarray binding calls

Calls as published in the ROBIN set (doi:10.1002/anie.202211358).

Targets, with sequences 5′ to 3′:
SAM-II: SAM-II riboswitch RNA pseudoknot, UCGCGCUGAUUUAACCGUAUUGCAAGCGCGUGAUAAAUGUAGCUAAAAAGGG. About 21,000 compounds screened, about 200 hits.
TPP: TPP riboswitch RNA three-way junction, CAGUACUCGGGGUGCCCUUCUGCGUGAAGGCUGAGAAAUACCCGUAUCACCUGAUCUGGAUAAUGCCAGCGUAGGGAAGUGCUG. About 24,000 compounds screened, about 160 hits.
PreQ1: PreQ1 riboswitch RNA pseudoknot, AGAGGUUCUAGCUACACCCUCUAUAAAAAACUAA. From B. subtilis. About 24,000 compounds screened, about 170 hits.

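Compounds were printed on reactive glass slides in duplicate spots, a dye-labelled oligonucleotide was laid over them, and the fluorescence left after washing was read. For the PreQ1, TPP and SAM-II riboswitches the laboratory earlier reported (doi:10.1038/s41467-019-09493-3) 1 µM RNA, 2 h, and a rule that included a mean Z-score above 3 (spot signal-to-noise against the whole library), a score well above that on a control array, and duplicate spots agreeing (coefficient of variation under 100). The data file gives only the calls; its cut-offs may differ, and compounds hitting several targets are kept. These are primary screening calls, not affinities; a compound without a hit may have attached poorly or may still bind in solution.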 A compound is marked hit if it was called a hit and no hit if it was screened but was not. The compounds are a random part of those screened. A target missing from an entry has no call listed here. A dash means that no call is listed here.

* Nc1cccnc1 | SAM-II: no hit; TPP: no hit; PreQ1: no hit
* Cc1n[nH]c(C)c1C(N)C(=O)NCc1scnc1-c1ccccc1 (centres undefined) | SAM-II: no hit; TPP: no hit; PreQ1: no hit
* COc1ccc(Nc2c3c(nc4nncn24)CCC3)cc1Cl | TPP: no hit; PreQ1: no hit
* Cc1ccc(C2(O)CCN(C(=O)c3noc(C)c3CO)CC2)nc1 | SAM-II: no hit; TPP: no hit; PreQ1: no hit
* O=C(c1cccnc1)C1Cc2ccccc2C1=O (centres undefined) | SAM-II: no hit; TPP: no hit; PreQ1: no hit
* CC(=O)N1CCN(c2ccc(OC[C@@H]3CO[C@@](Cn4ccnc4)(c4ccc(Cl)cc4Cl)O3)cc2)CC1 | SAM-II: no hit; TPP: no hit; PreQ1: no hit
* CCCCNCc1ccc2c(c1)n(C)c(=O)n2C | TPP: no hit; PreQ1: no hit
* CC(=O)OC1CCC2(C)C(CCC3C2CC(=O)C2(C)C3CC(N3CC3)C2C(C)=O)C1 (centres undefined) | SAM-II: no hit; TPP: no hit; PreQ1: no hit
* O=C(C1CC12CCNCC2)N1CCN(CCCOc2ccc(F)cc2)CC1 (centres undefined) | SAM-II: no hit; TPP: no hit; PreQ1: no hit
* Cn1c(=O)c2c(nc(NCCO)n2Cc2ccc(Cl)cc2)n(C)c1=O | SAM-II: no hit; TPP: no hit; PreQ1: no hit
* OCc1ccccc1-c1ccc(NC2CCCC2)nn1 | SAM-II: no hit; TPP: no hit; PreQ1: no hit
* O=C(O)Cc1sc(O)nc1O | SAM-II: no hit; TPP: no hit; PreQ1: no hit
* Cc1ccc(NC(=O)c2cccc(C(C)(C)C#N)c2)cc1Nc1ccc2ncn(C)c(=O)c2c1 | SAM-II: no hit; TPP: no hit; PreQ1: no hit
* NC1=C(c2nc(-c3ccccc3)cs2)C(=O)CN1c1ccccc1 | TPP: no hit; PreQ1: no hit
* Cn1c(=O)c2c(nc(NCCCCO)n2Cc2ccccc2Cl)n(C)c1=O | SAM-II: no hit; TPP: no hit; PreQ1: no hit
* CN(CCCc1nccn1C)C(=O)c1ccc(C2CCCNC2)cc1 (centres undefined) | SAM-II: no hit; TPP: no hit; PreQ1: no hit
* CCOC(=O)c1ccc2ncc(C(=O)OCC)c(Nc3ccc(N4CCOCC4)cc3)c2c1 | SAM-II: no hit; TPP: no hit; PreQ1: no hit
* Cc1nc(C2CNCCO2)n(C2CCN(C)CC2)n1 (centres undefined) | SAM-II: no hit; TPP: no hit; PreQ1: no hit
* CCOc1ccc(CNc2ncc(-c3ccc(C)cc3)n2C)cc1 | SAM-II: no hit; TPP: no hit; PreQ1: no hit
* NCCc1nnc(SCc2c(F)cccc2Cl)o1 | SAM-II: no hit; TPP: no hit; PreQ1: no hit
* COc1ccccc1OCC(O)Cn1cnc2cc(C)c(C)cc21 (centres undefined) | SAM-II: no hit; TPP: no hit; PreQ1: no hit
* CC(C)=CCC/C(C)=C\C(N)=O | SAM-II: no hit; TPP: no hit; PreQ1: hit
* Cc1ccc(S(=O)(=O)Nc2ccccc2CNCc2ccccc2)cc1 | SAM-II: no hit; TPP: no hit; PreQ1: no hit
* Nc1c(C(=O)NCc2ccc(Cl)cc2)sc2nc(-c3ccncc3)ccc12 | SAM-II: no hit; TPP: no hit; PreQ1: no hit
* CCc1cnc(C)nc1N1CCC(NC2CCc3ccccc3C2)CC1 (centres undefined) | SAM-II: no hit; TPP: no hit; PreQ1: no hit
* Nc1nc(F)nc2c1ncn2[C@@H]1O[C@H](COP(=O)(O)O)[C@@H](O)[C@H]1O | SAM-II: no hit; TPP: no hit; PreQ1: no hit
* CSCC[C@@H](CO)NC(=O)CC12CC3CC(CC(C3)C1)C2 | SAM-II: no hit; TPP: no hit; PreQ1: no hit
* COc1ccc2c(CNCC3CCCO3)c(C(=O)O)n(Cc3ccc(F)cc3)c2c1 (centres undefined) | TPP: no hit; PreQ1: no hit
* COc1cc(CNCCO)ccc1OCc1ccc2c(c1)n(C)c(=O)n2C | TPP: no hit; PreQ1: no hit
* Nc1cc(O)nc(CCNC(=O)C2COc3ccccc3C2)n1 (centres undefined) | SAM-II: no hit; TPP: no hit; PreQ1: no hit

Some entries from above, unchanged:

compound,SAM-II,TPP,PreQ1
CN(CCCc1nccn1C)C(=O)c1ccc(C2CCCNC2)cc1 (centres undefined),no hit,no hit,no hit
OCc1ccccc1-c1ccc(NC2CCCC2)nn1,no hit,no hit,no hit
NC1=C(c2nc(-c3ccccc3)cs2)C(=O)CN1c1ccccc1,-,no hit,no hit